This passage reports binding results from paper PMC11150143.

Chains of the proteins cited; added tags and fusions are not shown.
UniProt P26651: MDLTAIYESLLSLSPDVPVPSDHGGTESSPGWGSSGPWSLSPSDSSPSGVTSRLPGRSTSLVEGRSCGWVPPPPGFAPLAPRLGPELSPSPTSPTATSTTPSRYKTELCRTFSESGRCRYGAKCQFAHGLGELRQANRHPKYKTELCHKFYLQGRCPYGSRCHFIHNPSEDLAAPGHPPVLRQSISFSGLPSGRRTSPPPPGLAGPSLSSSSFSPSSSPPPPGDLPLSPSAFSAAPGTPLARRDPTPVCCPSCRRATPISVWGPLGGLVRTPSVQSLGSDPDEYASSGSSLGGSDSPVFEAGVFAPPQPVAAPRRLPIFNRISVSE
UniProt P49137: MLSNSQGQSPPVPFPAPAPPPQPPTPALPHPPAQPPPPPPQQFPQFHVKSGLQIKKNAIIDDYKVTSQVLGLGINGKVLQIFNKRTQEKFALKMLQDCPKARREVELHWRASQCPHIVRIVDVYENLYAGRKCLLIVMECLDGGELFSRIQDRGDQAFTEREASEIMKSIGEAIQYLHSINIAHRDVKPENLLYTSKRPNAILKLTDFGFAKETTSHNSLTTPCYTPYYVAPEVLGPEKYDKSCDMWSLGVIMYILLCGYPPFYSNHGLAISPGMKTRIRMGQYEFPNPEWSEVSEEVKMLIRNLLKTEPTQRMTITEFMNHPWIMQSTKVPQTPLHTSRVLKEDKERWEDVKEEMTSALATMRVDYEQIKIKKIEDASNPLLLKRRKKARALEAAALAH

Results are given in words; binding and its absence hold for the method and conditions named. Binding seen in cells or lysates may run through a third protein. Some entries that bind do so weakly or less than the wild type.

The target in the experiment is ZFP36 (human (endogenous in HIOECs)) (UniProt P26651). In words: co-IP; RNA-binding protein immunoprecipitation (RIP, Magna RIP kit) with a ZFP36 antibody from cells 48 h after transfection with CCAT1 inhibition or overexpression plasmids; precipitates analysed by PCR and Western blotting; more MK2 in the precipitate with CCAT1 overexpression. In general terms: A western blot detects proteins with antibodies after separation by electrophoresis.

For the substance “MAPK-activated protein kinase 2 (from UniProt P49137 1-400) (enzyme)”, the binding entry is “binds”.
